PubChem BioAssay AID1259405, NCATS – 2018
Assay: 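Mouse-designed siRNAs used to find CHO productivity engineering targets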 (primary screen). System: Chinese hamster CHO-K1 ovary cells with stable secreted eGFP expression. Reagents: single siRNA against mouse genes, 0.8 pmol siRNA per well (2 µl of 400 nM stock). Time to read-out: 3 days. Detection: 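Percent of the per-plate non-targeting control median for intracellular GFP per well by laser scanning cytometry and for cell viability by ATP luminescence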. Direction: GFP, % of control: higher = more GFP per well, higher productivity; viability (ATP), % of control: higher = more viable cells (more ATP). Active means: 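Called active when intracellular GFP, relative to negative control, is at or above 120%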.
In all, the deposit lists about 50,000 reagents; shown is an unselected part. About 4,000 of them (8%) were called active. 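Mouse siRNA library applied to hamster cells; one well for each siRNA.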 The numbers tell different reagents against one gene apart.

Target gene	reagent no.	GFP, % of control	viability (ATP), % of control	Outcome
Trp53	1	104	136	inactive
Trp53	2	18.2	53.5	inactive
Trp53	3	69.5	109	inactive
Gtf2h2	1	72.8	75.7	inactive
Gtf2h2	2	113	97.3	inactive
Rnf5	1	52.6	58.7	inactive
Rnf5	2	46	79.7	inactive
Rnf5	3	85	100	inactive
Sgpp1	1	77.9	46.3	inactive
Sgpp1	2	59.7	32	inactive
Sgpp1	3	112	67.6	inactive
Proz	1	50.4	58.2	inactive
Proz	2	71	43.4	inactive
Proz	3	95.4	63.4	inactive
Vmn1r190-ps	1	101	55.3	inactive
Vmn1r190-ps	2	119	72.6	inactive
Vmn1r190-ps	3	74.5	87.7	inactive
Nol12	1	79.9	88.4	inactive
Nol12	2	78.2	86.1	inactive
Nol12	3	64.9	66.1	inactive
Dcdc2a	1	55.6	58.6	inactive
Dcdc2a	2	91	67.9	inactive
Dcdc2a	3	146	72.1	active
Dcdc2a	4	142	93.3	active
Dcdc2a	5	101	74	inactive
Dcdc2a	6	102	92.7	inactive
Or2b28	1	74.9	79.6	inactive
Or2b28	2	86.8	95.7	inactive
Or2b28	3	50.8	86.6	inactive
Gpbp1	1	76.8	81.9	inactive
Gpbp1	2	36.7	51.8	inactive
Gpbp1	3	117	65.8	inactive
Abcg4	1	117	99.6	inactive
Abcg4	2	50.5	69.6	inactive
Abcg4	3	64.8	67.7	inactive
Kbtbd8	1	83	73.4	inactive
Kbtbd8	2	82.3	118	inactive
Kbtbd8	3	99.7	113	inactive
Or4k51	1	80.9	72.4	inactive
Or4k51	2	99.4	82.4	inactive
Or4k51	3	93.1	89.7	inactive
Abra	1	54.2	66.8	inactive
Abra	2	78	98	inactive
Abra	3	163	147	active

A run of entries taken from the entries so far, for reference:
Target gene	reagent no.	GFP, % of control	viability (ATP), % of control	Outcome
Abcg4	1	117	99.6	inactive
Abcg4	2	50.5	69.6	inactive
Abcg4	3	64.8	67.7	inactive
Kbtbd8	1	83	73.4	inactive
Kbtbd8	2	82.3	118	inactive
Kbtbd8	3	99.7	113	inactive
Or4k51	1	80.9	72.4	inactive
Or4k51	2	99.4	82.4	inactive
Or4k51	3	93.1	89.7	inactive

Next results follow:
Target gene	reagent no.	GFP, % of control	viability (ATP), % of control	Outcome
Foxo4	1	159	68.4	active
Foxo4	2	142	65.6	active
Foxo4	3	102	98.2	inactive
A630038E17Rik	1	50.1	43.4	inactive
A630038E17Rik	2	101	102	inactive
A630038E17Rik	3	52.3	61.8	inactive
Git1	1	154	108	active
Git1	2	193	116	active
Git1	3	95.9	67.9	inactive
Or9i1	1	32.1	30.4	inactive
Or9i1	2	74.4	96.5	inactive
Or9i1	3	44.2	63.2	inactive
Inhba	1	93.4	92.9	inactive
Inhba	2	63.9	78.6	inactive
Inhba	3	120	125	active
Or5an9	1	68.8	59.8	inactive
Or5an9	2	41.9	50	inactive
Or5an9	3	128	81.4	active
Gatb	1	76.7	70.8	inactive
Gatb	2	114	87.4	inactive
Gatb	3	98.6	125	inactive
Sval2	1	104	65.3	inactive
Sval2	2	71.2	87.1	inactive
Sval2	3	159	160	active
Or5m10b	1	84.4	82.2	inactive
Or5m10b	2	50.2	77.4	inactive
Or5m10b	3	52.5	75	inactive
4930515G01Rik	1	92.8	71.6	inactive
4930515G01Rik	2	91.4	73.8	inactive
4930515G01Rik	3	62.6	64.6	inactive
Or14j3	1	60.4	63.3	inactive
Or14j3	2	55.2	54.2	inactive
Or14j3	3	88.1	46.6	inactive
Smc3	1	84.8	64.1	inactive
Smc3	2	130	85.8	active
Smc3	3	108	111	inactive
Stxbp4	1	102	91.2	inactive
Stxbp4	2	25.4	45.7	inactive
Stxbp4	3	59.6	51.5	inactive
Spg11	1	71.8	79.4	inactive
Spg11	2	62.9	56.7	inactive
Spg11	3	75.6	98.9	inactive
